Experimental data published in PubChem BioAssay AID2685 (National Center for Advancing Translational Sciences (NCATS), 2010).
This is one part of the list. The main result of the screen is listed elsewhere. These columns were measured beside it and carry no call. Compounds called inactive in the main read-out are mostly missing here. The note in brackets gives the kind of curve behind each potency; many fits are weak.

Assay: qHTS Assay for Lipid Storage Modulators in Drosophila S3 Cells;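 on cell number change: cells counted by Cell Tracker Red CMTPX staining in the red channel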
Settings: BODIPY lipid droplet fluorescence, 18-24 h; for cell number change: measured here: cell count max response, cells fed with added oleic acid
Procedure, shortened: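 Drosophila S3 cells loaded with oleic acid (400 uM, as added) and compounds at several concentrations; lipid droplets imaged by 488-nm laser-scanning cytometry, 500–530 nm intensity and object ratio to cell channel. Percent activity normalized to 20 uM Triacsin C.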

[1] = measured here: lipid fluorescence (Fed channel) AC50, cells fed with added oleic acid
[2] = measured here: cell number channel AC50, cells fed with added oleic acid

Compound	cell number change [%]	AC50 [1]	AC50 [2]
COc1ccc(Cl)cc1NC(=O)CCNC(=O)Cn1ccc2ccccc2c1=O	38.5	18.4 µM [rising, single point]	
COc1ccccc1C(=O)NC(=S)Nc1ccc(Cc2ccncc2)cc1	-58.9	7.31 µM [falling, partial curve]	7.31 µM [falling, partial curve]
CN1CCN(C(=O)c2cc3c(ccc4ccccc43)oc2=O)CC1	-30.1		23.1 µM [falling, partial curve]
Cc1nc(SCC(=O)c2ccc(F)cc2)n[nH]1	6.59	0.103 µM [rising, full curve, poor fit]	
O=C(CCCCCCCCN1C(=O)c2ccccc2C1=O)N1CCOCC1	12.4		
CC(C)C(NC(=O)c1ccccc1)C(=O)NCCc1ccccc1 (stereo not given)	39.1	0.0058 µM [falling, full curve, poor fit]	10.3 µM [rising, single point]
Cc1ccc(NC(=O)CSc2n[nH]c(-c3ccco3)n2)c(C)c1	21.1	13 µM [rising, partial curve]	
O=C(/C=C/c1ccc(-c2ccccc2[N+](=O)[O-])o1)c1ccc(F)cc1	-23.6	8.2 µM [falling, partial curve, poor fit]	
O=S(=O)(c1ccccc1)N1CCC2(CC1)OCCN2S(=O)(=O)c1cccs1	111		16.4 µM [rising, partial curve]
COc1cccc(-c2nc(CS(=O)(=O)CC(=O)NCCCc3ccccc3)c(C)o2)c1	43.7	0.291 µM [falling, full curve]	23.1 µM [rising, single point]
CCCOC(=O)C1=C(C)NC2=C(C(=O)CCC2)C1c1cccs1 (stereo not given)	-0.129		
CCCCN(C)S(=O)(=O)c1c(C)[nH]c(=O)[nH]c1=O	-17.6	0.13 µM [falling, full curve, poor fit]	
CCOc1ccc(NC(=S)Nc2cccc3ccccc23)cc1	-6.9	35.5 µM [rising, single point]	
CCOC(=O)c1sc(NC(=O)CSc2nc3c(c(=O)n2-c2ccc(F)cc2)SCC3)c(C(=O)OCC)c1C		1.46 µM [rising, partial curve]	6.51 µM [rising, single point]
C=CC[N+]1(CC#Cc2ccccc2)CCCC1	-5.31	1.46 µM [rising, partial curve]	
CC(=O)NC1(C(F)(F)F)NC(=O)N(c2ccc(F)cc2)C1=O (stereo not given)	-29	4.11 µM [falling, full curve]	0.92 µM [falling, full curve, poor fit]
CCOC(=O)N1CCC(Nc2nc3ccccc3n3nnnc23)CC1	-11.7	1.03 µM [rising, single point]	
COC(=O)c1ccc(C2/C(=C(/O)c3ccc4c(c3)CC(C)O4)C(=O)C(=O)N2CCN2CCOCC2)cc1 (stereo not given)	19	0.0731 µM [rising, full curve, poor fit]	
Cn1cc(SCC(=O)Nc2nc3ccccc3s2)c2ccccc21			0.0731 µM [rising, full curve, poor fit]
COC(=O)COc1ccc(C2NC(=O)NC(C)=C2C(=O)NCc2ccccc2)cc1OC (stereo not given)	65.9	29.1 µM [rising, single point]	

Only cell number change [%] and AC50 [2], for some of the entries so far:
Compound	cell number change [%]	AC50 [2]
CCOc1ccc(NC(=S)Nc2cccc3ccccc23)cc1	-6.9	
CCOC(=O)c1sc(NC(=O)CSc2nc3c(c(=O)n2-c2ccc(F)cc2)SCC3)c(C(=O)OCC)c1C		6.51 µM [rising, single point]
C=CC[N+]1(CC#Cc2ccccc2)CCCC1	-5.31	

Additional entries

Compound	cell number change [%]	AC50 [1]	AC50 [2]
CC(=O)c1cccc(NC(=O)c2ccc(-c3ccccc3[N+](=O)[O-])o2)c1	-1.22	0.146 µM [rising, full curve, poor fit]	
Cc1c(OCc2ccccc2)cccc1OCc1ccccc1	-4.26	0.82 µM [rising, full curve, poor fit]	
O=C(NNC(=O)c1cc(-c2ccc(Cl)cc2)nc2ccccc12)c1csc(N2CCOCC2)n1	16.3	29.1 µM [rising, single point]	
O=C(COC(=O)c1ccc(S(=O)(=O)N2CCCC2)cc1)NCc1ccc(Cl)cc1	-11.6	18.4 µM [falling, partial curve]	2.31 µM [falling, partial curve]
COc1ccccc1N1CCN(C(=O)C(C)NC(=O)c2cccc([N+](=O)[O-])c2)CC1 (stereo not given)	16.2	29.1 µM [falling, single point]	
CCc1ccc2c(CC(=O)Nc3cccc(S(=O)(=O)N4CCOCC4)c3)coc2c1	-8.67	3.26 µM [falling, single point]	
CC(c1ccccc1)N(C)CC(=O)NC(=O)NCCC1=CCCCC1 (stereo not given)	-4.93	1.84 µM [rising, partial curve]	
CCC(C)NC(=O)Nc1ccccc1C (stereo not given)		5.8 µM [rising, partial curve]	0.103 µM [rising, single point]
CCCCOc1cccc(-c2nnc(N)s2)c1	173		0.092 µM [rising, full curve, poor fit]
O=C(CSC1=NS(=O)(=O)c2cc(F)ccc2N1)NCc1ccc(F)cc1	-17.7	3.26 µM [falling, full curve, poor fit]	
O=C(CSc1ncnc2sccc12)Nc1ccccc1	13.3		0.116 µM [rising, full curve, poor fit]
Cc1nc(SCC(=O)NC2CCS(=O)(=O)C2)c2c3c(sc2n1)CCCC3 (stereo not given)	19.3	29.1 µM [rising, single point]	
Cc1ccn2cc(CCNC(=O)C3CC=CCC3C(=O)O)nc2c1 (stereo not given)	-7.37	0.651 µM [falling, full curve, poor fit]	
O=C(NC(=S)NC1CCSC1=O)c1cccs1 (stereo not given)	33.3		6.51 µM [rising, partial curve, poor fit]
CCn1c(SCC(=O)O)nnc1-c1ccccc1	6.86	7.31 µM [rising, partial curve, poor fit]	
C/C(=N\Nc1cccc(Cl)c1)c1ccc(-n2ccnc2)cc1	32	0.92 µM [rising, full curve]	0.58 µM [rising, full curve]
CCC(C)(c1ccc(C=O)s1)c1ccc(C=O)s1	-2.12		
Cc1cc(=O)c(C(=O)O)cn1Nc1ccc(F)cc1		0.0411 µM [falling, full curve, poor fit]	
CC(C)NC(=O)c1ccc(CN2CCc3ccccc3C2)cc1	31.4	13 µM [rising, partial curve, poor fit]	36.6 µM [rising, single point]
C/C(=N\NC(=O)c1cccc(N/N=C(\C)c2ccncc2)c1)c1ccncc1		29.1 µM [falling, single point]	

Another view of part of the listing above.
Compound,cell number change [%],AC50 [1],AC50 [2]
O=C(COC(=O)c1ccc(S(=O)(=O)N2CCCC2)cc1)NCc1ccc(Cl)cc1,-11.6,"18.4 µM [falling, partial curve]","2.31 µM [falling, partial curve]"
COc1ccccc1N1CCN(C(=O)C(C)NC(=O)c2cccc([N+](=O)[O-])c2)CC1 (stereo not given),16.2,"29.1 µM [falling, single point]",
CCc1ccc2c(CC(=O)Nc3cccc(S(=O)(=O)N4CCOCC4)c3)coc2c1,-8.67,"3.26 µM [falling, single point]",

(listing goes on)

Compound	cell number change [%]	AC50 [1]	AC50 [2]
COc1cc([C@H]2c3[nH]c4ccccc4c3C[C@H]3C(=O)N4[C@@H](c5cc(OC)c(OC)c(OC)c5)c5[nH]c6ccccc6c5C[C@H]4C(=O)N23)cc(OC)c1OC		9.2 µM [falling, partial curve]	0.82 µM [falling, partial curve]
COCCNCc1ccccc1		23.1 µM [falling, partial curve]	
CCC1(CC)Cc2ccccc2C(=C(C#N)C#N)N1	29.5	5.8 µM [rising, partial curve]	
CC1CCN(c2ccccc2NC(=O)c2ccc(C#N)cc2F)CC1	110		18.4 µM [rising, single point]
COc1ccc(CN(Cc2ccc(C(=O)O)cc2)C(=S)Nc2cc(C)cc(C)c2)cc1OC	-44.2	1.46 µM [falling, partial curve]	1.64 µM [falling, partial curve, poor fit]
O=C(COC(=O)/C=C/c1cccc([N+](=O)[O-])c1)NCc1ccco1	-40		29.1 µM [falling, single point]
O=S(=O)(Nc1ccc(Cl)cc1)c1ccc(N2CCOCC2)c(NC(=S)NC2CC2)c1	22.9		
Cc1cc(C)n2nc(C(=O)Nc3c(C)nn(Cc4ccc(F)cc4)c3C)cc2n1	6.94	1.16 µM [rising, single point]	
CCc1cc(OCCN2C(=O)NC(C)(C)C2=O)ccc1Cl	-2.86	0.92 µM [falling, full curve]	1.46 µM [falling, partial curve]
CC(NCC(O)c1ccc([N+](=O)[O-])cc1)C12CC3CC(CC(C3)C1)C2 (stereo not given)	7.36	32.6 µM [falling, single point]	
Cc1c(OC(=O)c2ccc([N+](=O)[O-])cc2)c2c(c[n+]1C)COC(C)(C)OC2		4.11 µM [rising, partial curve, poor fit]	
CSc1ccc(CCNS(=O)(=O)c2c(C)[nH]c(C)c2C(=O)N2CCCCC2)cc1	-18.8	0.82 µM [falling, single point]	
Cc1ccsc1C1Nc2ccccc2-c2nc3ccccc3n21 (stereo not given)	12.7	29.1 µM [rising, single point]	
COc1ccccc1N1CCN(C(=O)CCNS(=O)(=O)c2cc(Br)cnc2N)CC1		32.6 µM [falling, single point]	
CC1CCC(NC(=O)Cn2ncc3ccccc32)CC1 (stereo not given)	13.7	32.6 µM [falling, partial curve, poor fit]	
O=C(O)CCS(=O)(=O)c1cccc2cccnc12	-89		29.1 µM [falling, single point]
COc1ccc(NC(=O)CN2C(=O)NC(C)(c3ccc(C)cc3)C2=O)c([N+](=O)[O-])c1 (stereo not given)	-4.27		
CN(c1ccc(C(=O)O)cc1)S(=O)(=O)c1ccc(Cl)cc1	-18.9	2.06 µM [falling, full curve]	0.13 µM [falling, full curve]
